The target of test [1] is human Nogo-A extracellular domain expressed on the surface of CHO-K1 cells (human) (UniProt Q9NQC3). Put plainly: flow cytometry on CHO-K1 cells expressing human Nogo-A extracellular domain, PE anti-human IgG.
The target is the same in test [2]. Put plainly: flow cytometry on CHO-K1 cells expressing human Nogo-A, antibody at 100 mcg/ml, PE anti-human IgG.
Test [3] has as its target T1, peptide 16.
T1 sequence (peptide, by the resolver, chain 1, biotin on the N-terminus of the SGSG linker): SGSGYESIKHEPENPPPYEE
The experiment in a line: condition: 5 ug/ml antibody (not on the sheet); peptide ELISA: biotinylated 16-mer peptide on streptavidin, kappa-chain peroxidase conjugate, Abs490.

The chains behind the UniProt entries cited, without tags or fusion partners. Residues count along the entry.
UniProt Q9NQC3, residues 186-1004: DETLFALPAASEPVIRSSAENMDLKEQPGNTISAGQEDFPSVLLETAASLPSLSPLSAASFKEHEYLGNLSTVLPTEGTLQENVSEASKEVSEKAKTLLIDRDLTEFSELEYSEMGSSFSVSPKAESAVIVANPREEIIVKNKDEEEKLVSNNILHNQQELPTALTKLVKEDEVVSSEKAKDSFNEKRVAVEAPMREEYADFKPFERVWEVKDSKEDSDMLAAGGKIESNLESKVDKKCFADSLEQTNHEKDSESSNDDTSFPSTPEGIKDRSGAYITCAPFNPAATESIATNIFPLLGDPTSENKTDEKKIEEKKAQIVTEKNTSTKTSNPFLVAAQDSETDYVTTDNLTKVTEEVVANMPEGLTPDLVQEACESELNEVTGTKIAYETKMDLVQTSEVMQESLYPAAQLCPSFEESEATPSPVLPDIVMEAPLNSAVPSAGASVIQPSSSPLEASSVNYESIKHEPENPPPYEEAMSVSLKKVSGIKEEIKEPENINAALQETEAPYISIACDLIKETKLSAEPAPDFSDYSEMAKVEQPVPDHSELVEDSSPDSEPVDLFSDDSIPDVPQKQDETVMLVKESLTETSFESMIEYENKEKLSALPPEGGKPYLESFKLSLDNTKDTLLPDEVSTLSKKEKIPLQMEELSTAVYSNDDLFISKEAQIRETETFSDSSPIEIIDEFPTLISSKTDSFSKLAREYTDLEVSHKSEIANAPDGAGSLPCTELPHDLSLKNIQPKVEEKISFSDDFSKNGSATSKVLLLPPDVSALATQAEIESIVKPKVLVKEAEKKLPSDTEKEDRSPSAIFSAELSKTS

For test [4], the target named is T2, peptide 17.
T2 sequence (peptide, by the resolver, chain 1, biotin on the N-terminus of the SGSG linker): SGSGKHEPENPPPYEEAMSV
The test is described as above.

In US20130287781A1 one finds binding data, which are given here for five molecules.

Results are given in words; binding and its absence hold for the method and conditions named. Some results given as binding are weak or reduced against the parent protein; the word gives no strength.

B1: HcLc (chimera of 2A10: murine 2A10 VH and VL with human IgG constant regions) (antibody, V domains shown)
VH: QVQLQQPGTELVKPGASVKLSCKASGYTFTSYWMHWVKQRPGQGLEWIGNINPSNGGTNYNEKFKSKATLTVDKSSSTAYMQLSSLTSEDSAVYYCELGQGYWGQGTLVTVSS
VL: DIVITQDELSNPVTSGESVSISCRSSKSLLYKDGKTYLNWFLQRPGQSPQLLIYLMSTRASGVSDRFSGSGSGTDFTLEISRVKAEDVGVYYCQQLVEYPLTFGAGTKLELKR
Consider B1, for which the binding result in test [1] and in test [2] was “binds” each time.

B2: 2A10 (murine monoclonal antibody) (antibody, V domains shown)
VH: QVQLQQPGTELVKPGASVKLSCKASGYTFTSYWMHWVKQRPGQGLEWIGNINPSNGGTNYNEKFKSKATLTVDKSSSTAYMQLSSLTSEDSAVYYCELGQGYWGQGTTLTVSS
VL: DIVITQDELSNPVTSGESVSISCRSSKSLLYKDGKTYLNWFLQRPGQSPQLLIYLMSTRASGVSDRFSGSGSGTDFTLEISRVKAEDVGVYYCQQLVEYPLTFGAGTKLELK
As for B2, the binding result in test [3] and in test [4] was “no binding” in each case.

B3: H20L16 (antibody, human IgG1, kappa, V domains shown)
VH: QVQLVQSGAEVKKPGASVKVSCKASGYTFTSYWMHWVRQAPGQGLEWIGNINPSNGGTNYNEKFKSKATMTRDTSTSTAYMELSSLRSEDTAVYYCELGQGYWGQGTLVTVSS
VL: DIVMTQSPLSNPVTLGQPVSISCRSSKSLLYKDGKTYLNWFLQRPGQSPQLLIYLMSTRASGVPDRFSGGGSGTDFTLKISRVEAEDVGVYYCQQLVEYPLTFGQGTKLEIKR
Turning to B3, the binding result in test [1] and in test [2] was “binds” each time.

B4: H28L13 (antibody, human IgG1, kappa, V domains shown)
VH: QVQLVQSGAEVKKPGASVKVSCKASGYTFTSYWMHWVRQAPGQGLEWIGNINPSNGGTNYNEKFKSKATMTRDTSTSTAYMELSSLRSEDTAVYYCELMQGYWGQGTLVTVSS
VL: DIVMTQSPLSLPVTLGQPASISCRSSKSLLYKDGKTYLNWFQQRPGQSPQLLIYLMSTRASGVPDRFSGGGSGTDFTLKISRVEAEDVGVYYCQQLVEYPLTFGQGTKLEIKR
For the molecule B4, the binding entry in test [1] and in test [2] was “binds” throughout.

B5: H27L16 (antibody, human IgG1, kappa, V domains shown)
VH: QVQLVQSGAEVKKPGASVKVSCKASGYTFTSYWMHWVKQRPGQGLEWIGNINPSNGGTNYNEKFKSKATLTVDKSTSTAYMELSSLRSEDTAVYYCELMQGYWGQGTLVTVSS
VL: DIVMTQSPLSNPVTLGQPVSISCRSSKSLLYKDGKTYLNWFLQRPGQSPQLLIYLMSTRASGVPDRFSGGGSGTDFTLKISRVEAEDVGVYYCQQLVEYPLTFGQGTKLEIKR
With B5, the binding entry in test [1] and in test [2] was “binds” in each case.
